Chains of the proteins cited; added tags and fusions are not shown. Lines headed by an entry give the natural chain unless they say otherwise; changes in a name come on top.
UniProt P22147: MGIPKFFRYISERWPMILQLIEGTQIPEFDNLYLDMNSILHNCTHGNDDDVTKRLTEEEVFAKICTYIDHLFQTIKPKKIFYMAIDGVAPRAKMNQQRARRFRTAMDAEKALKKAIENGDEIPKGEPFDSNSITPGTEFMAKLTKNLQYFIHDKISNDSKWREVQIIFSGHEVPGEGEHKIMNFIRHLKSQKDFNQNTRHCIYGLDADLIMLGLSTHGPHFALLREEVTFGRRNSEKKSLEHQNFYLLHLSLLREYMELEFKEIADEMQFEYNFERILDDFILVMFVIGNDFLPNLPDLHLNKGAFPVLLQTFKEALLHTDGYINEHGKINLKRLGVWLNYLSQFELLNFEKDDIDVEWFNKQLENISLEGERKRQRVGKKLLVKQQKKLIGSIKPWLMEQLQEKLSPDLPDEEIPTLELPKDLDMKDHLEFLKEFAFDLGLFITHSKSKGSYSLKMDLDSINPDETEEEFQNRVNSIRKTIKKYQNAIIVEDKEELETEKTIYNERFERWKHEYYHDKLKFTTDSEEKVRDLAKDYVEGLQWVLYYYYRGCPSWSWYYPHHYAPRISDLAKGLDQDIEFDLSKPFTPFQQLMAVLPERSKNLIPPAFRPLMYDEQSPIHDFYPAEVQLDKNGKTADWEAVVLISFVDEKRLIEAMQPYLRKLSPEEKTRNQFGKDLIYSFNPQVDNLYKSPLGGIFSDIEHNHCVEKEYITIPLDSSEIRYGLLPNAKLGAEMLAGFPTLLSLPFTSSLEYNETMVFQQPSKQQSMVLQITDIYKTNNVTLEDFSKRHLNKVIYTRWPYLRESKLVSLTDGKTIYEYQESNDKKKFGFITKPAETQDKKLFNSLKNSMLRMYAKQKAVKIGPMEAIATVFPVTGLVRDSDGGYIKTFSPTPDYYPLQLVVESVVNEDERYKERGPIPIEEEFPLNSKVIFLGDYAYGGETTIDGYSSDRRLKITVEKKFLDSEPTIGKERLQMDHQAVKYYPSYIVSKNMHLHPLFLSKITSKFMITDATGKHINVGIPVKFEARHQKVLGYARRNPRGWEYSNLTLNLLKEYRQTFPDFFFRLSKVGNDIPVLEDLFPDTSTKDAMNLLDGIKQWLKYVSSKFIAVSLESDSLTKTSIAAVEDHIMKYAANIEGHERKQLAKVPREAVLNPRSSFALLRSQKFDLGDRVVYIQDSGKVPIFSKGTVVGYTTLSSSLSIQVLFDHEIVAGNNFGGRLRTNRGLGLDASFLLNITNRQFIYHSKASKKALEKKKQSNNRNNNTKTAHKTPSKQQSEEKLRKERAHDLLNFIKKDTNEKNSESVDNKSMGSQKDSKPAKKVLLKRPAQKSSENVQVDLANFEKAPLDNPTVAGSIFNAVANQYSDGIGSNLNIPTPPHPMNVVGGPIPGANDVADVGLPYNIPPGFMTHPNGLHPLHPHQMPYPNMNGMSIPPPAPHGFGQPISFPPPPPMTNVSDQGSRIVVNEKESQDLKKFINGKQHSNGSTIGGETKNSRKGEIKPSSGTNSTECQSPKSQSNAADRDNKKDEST

According to publication PMC10681259:

B1: Dcp1 (protein, UniProt Q12517 1-231)
chain: MTGAATAAENSATQLEFYRKALNFNVIGRYDPKIKQLLFHTPHASLYKWDFKKDEWNKLEYQGVLAIYLRDVSQNTNLLPVSPQEVDIFDSQNGSNNIQVNNGSDNSNRNSSGNGNSYKSNDSLTYNCGKTLSGKDIYNYGLIILNRINPDNFSMGIVPNSVVNKRKVFNAEEDTLNPLECMGVEVKDELVIIKNLKHEVYGIWIHTVSDRQNIYELIKYLLENEPKDSFA
B2: Edc3 (protein, UniProt P39998 1-551)
chain: MSQFVGFGVQVELKDGKLIQGKIAKATSKGLTLNDVQFGDGGKSQAFKVRASRLKDLKVLTVASQSGKRKQQRQQQQQNDYNQNRGEHIDWQDDDVSKIKQQEDFDFQRNLGMFNKKDVFAQLKQNDDILPENRLQGHNRKQTQLQQNNYQNDELVIPDAKKDSWNKISSRNEQSTHQSQPQQDAQDDLVLEDDEHEYDVDDIDDPKYLPITQSLNITHLIHSATNSPSINDKTKGTVINDKDQVLAKLGQMIISQSRSNSTSLPAANKQTTIRSKNTKQNIPMATPVQLLEMESITSEFFSINSAGLLENFAVNASFFLKQKLGGRARLRLQNSNPEPLVVILASDSNRSGAKALALGRHLCQTGHIRVITLFTCSQNELQDSMVKKQTDIYKKCGGKIVNSVSSLESAMETLNSPVEIVIDAMQGYDCTLSDLAGTSEVIESRIKSMISWCNKQRGSTKVWSLDIPNGFDAGSGMPDIFFSDRIEATGIICSGWPLIAINNLIANLPSLEDAVLIDIGIPQGAYSQRTSLRKFQNCDLFVTDGSLLLDL
B3: Pby1 (protein, UniProt P38254 1-753)
chain: MRVLITNDDGPLSDQFSPYIRPFIQHIKRNYPEWKITVCVPHVQKSWVGKAHLAGKNLTAQFIYSKVDAEDNTFWGPFIQPQIRSENSKLPYVLNAEIPKDTIEWILIDGTPASCANIGLHLLSNEPFDLVLSGPNVGRNTSAAYITSSGTVGGAMESVITGNTKAIAISWAYFNGLKNVSPLLMEKASKRSLDVIKHLVKNWDPKTDLYSINIPLVESLSDDTKVYYAPIWENRWIPIFNGPHINLENSFAEIEDGNESSSISFNWAPKFGAHKDSIHYMDEYKDRTVLTDAEVIESEMISVTPMKATFKGVNHLLGELKLTEEENNLSKTNNLIVVSIDPMEYIYKPLTHALKKYLPQVEIVSNLPEFDNGGCEKEMKVFHYGDYEQLDMDKLMELPNNYFTNSYIYRKALIRKHFLSHTIQTYTAKNPESILKKAYLESFTIDLDYAEFLDDALDENWELRQELENESQDKWWIVKPSMSDKGQGIRVFKTIEDLQAIFDSFDDEDSEAEESGNDDDADDVNGEFMDNNKVNISQLRHFIIQEYLTNPLLLASMDNRKFHIRCYVVCRGDLQVFVYDRMLALFAAKPFVPLDPYAYSVTDLKDLECHLTNTCLQSKKKDKDSSVLEFDSIEEIPNERKSNIKEQIHSITNDVFLAAVNVNRLNFQPLPNAFETYGVDFLIDSNYEVKLLEINAFPDFKQTGKDLKNLIDELFDDTVKYCVTPIFNENRNKTDDETDPNFVKVIDYTSNGW
B4: Pat1 (protein, UniProt P25644 1-796)
chain: MSFFGLENSGNARDGPLDFEESYKGYGEHELEENDYLNDETFGDNVQVGTDFDFGNPHSSGSSGNAIGGNGVGATARSYVAATAEGISGPRTDGTAAAGPLDLKPMESLWSTAPPPAMAPSPQSTMAPAPAPQQMAPLQPILSMQDLERQQRQMQQQFMNFHAMGHPQGLPQGPPQQQFPMQPASGQPGPSQFAPPPPPPGVNVNMNQMPMGPVQVPVQASPSPIGMSNTPSPGPVVGATKMPLQSGRRSKRDLSPEEQRRLQIRHAKVEKILKYSGLMTPRDKDFITRYQLSQIVTEDPYNEDFYFQVYKIIQRGGITSESNKGLIARAYLEHSGHRLGGRYKRTDIALQRMQSQVEKAVTVAKERPSKLKDQQAAAGNSSQDNKQANTVLGKISSTLNSKNPRRQLQIPRQQPSDPDALKDVTDSLTNVDLASSGSSSTGSSAAAVASKQRRRSSYAFNNGNGATNLNKSGGKKFILELIETVYEEILDLEANLRNGQQTDSTAMWEALHIDDSSYDVNPFISMLSFDKGIKIMPRIFNFLDKQQKLKILQKIFNELSHLQIIILSSYKTTPKPTLTQLKKVDLFQMIILKIIVSFLSNNSNFIEIMGLLLQLIRNNNVSFLTTSKIGLNLITILISRAALIKQDSSRSNILSSPEISTWNEIYDKLFTSLESKIQLIFPPREYNDHIMRLQNDKFMDEAYIWQFLASLALSGKLNHQRIIIDEVRDEIFATINEAETLQKKEKELSVLPQRSQELDTELKSIIYNKEKLYQDLNLFLNVMGLVYRDGEISELK
B5: Dcp2 (enzyme, UniProt P53550 1-970)
chain: MSLPLRHALENVTSVDRILEDLLVRFIINCPNEDLSSVERELFHFEEASWFYTDFIKLMNPTLPSLKIKSFAQLIIKLCPLVWKWDIRVDEALQQFSKYKKSIPVRGAAIFNENLSKILLVQGTESDSWSFPRGKISKDENDIDCCIREVKEEIGFDLTDYIDDNQFIERNIQGKNYKIFLISGVSEVFNFKPQVRNEIDKIEWFDFKKISKTMYKSNIKYYLINSMMRPLSMWLRHQRQIKNEDQLKSYAEEQLKLLLGITKEEQIDPGRELLNMLHTAVQANSNNNAVSNGQVPSSQELQHLKEQSGEHNQQKDQQSSFSSQQQPSIFPSLSEPFANNKNVIPPTMPMANVFMSNPQLFATMNGQPFAPFPFMLPLTNNSNSANPIPTPVPPNFNAPPNPMAFGVPNMHNLSGPAVSQPFSLPPAPLPRDSGYSSSSPGQLLDILNSKKPDSNVQSSKKPKLKILQRGTDLNSIKQNNNDETAHSNSQALLDLLKKPTSSQKIHASKPDTSFLPNDSVSGIQDAEYEDFESSSDEEVETARDERNSLNVDIGVNVMPSEKDSRRSQKEKPRNDASKTNLNASAESNSVEWGPGKSSPSTQSKQNSSVGMQNKYRQEIHIGDSDAYEVFESSSDEEDGKKLEELEQTQDNSKLISQDILKENNFQDGEVPHRDMPTESNKSINETVGLSSTTNTVKKVPKVKILKRGETFASLANDKKAFDSSSNVSSSKDLLQMLRNPISSTVSSNQQSPKSQHLSGDEEIMMMLKRNSVSKPQNSEENASTSSINDANASELLGMLKQKEKDITAPKQPYNVDSYSQKNSAKGLLNILKKNDSTGYPRTEGGPSSEMSTSMKRNDATNNQELDKNSTELLNYLKPKPLNDGYENISNKDSSHELLNILHGNKNSSAFNNNVYATDGYSLASDNNENSSNKLLNMLQNRSSAINEPNFDVRSNGTSGSNELLSILHRK

target: T1, eIF2A-TAP (S. cerevisiae) (UniProt P53235); assay: affinity purification with mass spectrometry; eIF2A-TAP as bait on IgG-coupled magnetic beads, lysate of a strain with Xrn1 D206A; 20mM Hepes pH 7.4, 10mM MgCl2, 100mM KOAc, 0.5% Triton, 2 hours at 4°C; SDS elution; label-free quantitative LC-MS/MS, six independent experiments
T1 sequence: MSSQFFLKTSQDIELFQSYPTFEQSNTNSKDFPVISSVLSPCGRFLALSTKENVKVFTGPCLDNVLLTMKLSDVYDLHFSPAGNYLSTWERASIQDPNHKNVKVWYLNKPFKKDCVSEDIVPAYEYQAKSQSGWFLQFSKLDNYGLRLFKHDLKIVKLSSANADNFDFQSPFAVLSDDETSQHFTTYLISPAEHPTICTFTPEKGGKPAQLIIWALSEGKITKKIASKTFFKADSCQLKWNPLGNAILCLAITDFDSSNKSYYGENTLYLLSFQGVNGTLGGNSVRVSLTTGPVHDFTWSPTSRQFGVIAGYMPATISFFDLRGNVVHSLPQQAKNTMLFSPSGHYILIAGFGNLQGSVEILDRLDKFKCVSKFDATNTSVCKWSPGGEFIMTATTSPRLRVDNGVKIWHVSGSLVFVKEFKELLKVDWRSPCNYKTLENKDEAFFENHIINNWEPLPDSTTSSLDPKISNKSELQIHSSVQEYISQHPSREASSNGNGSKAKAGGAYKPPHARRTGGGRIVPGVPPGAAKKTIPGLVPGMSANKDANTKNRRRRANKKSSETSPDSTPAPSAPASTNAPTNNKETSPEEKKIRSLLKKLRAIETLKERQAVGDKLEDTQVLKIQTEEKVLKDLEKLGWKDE

binding, binds:
Xrn1 (D206A), 5’-3’ exonuclease (from UniProt P22147 1-1528) (enzyme)
Ska1
B1
B2
B3
B4
B5

Results are given in words; binding and its absence hold for the method and conditions named. In cells and extracts the contact can be indirect. Here binding means that the protein was enriched with, or labelled near, the bait; the list need not be complete.
